Data reported in publication PMC2900177.
These are yes or no findings as the source states them, for the method shown. Binding seen in cells or lysates may run through a third protein. For some of these results: Binding calls can cover weak binding; strength is not graded here. Where a sequence is shown, tags or fusion partners need not be part of it.

T1: GST-14-3-3γ (UniProt P61981)
T1 sequence: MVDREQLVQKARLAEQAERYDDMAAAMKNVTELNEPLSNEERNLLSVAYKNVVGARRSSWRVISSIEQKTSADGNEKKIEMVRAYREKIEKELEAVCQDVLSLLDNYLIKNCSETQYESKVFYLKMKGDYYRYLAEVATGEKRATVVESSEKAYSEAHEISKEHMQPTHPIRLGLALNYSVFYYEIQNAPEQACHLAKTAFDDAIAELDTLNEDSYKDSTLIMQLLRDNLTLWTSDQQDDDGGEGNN

T2: FLAG-14-3-3γ (UniProt P61981)
T2 sequence: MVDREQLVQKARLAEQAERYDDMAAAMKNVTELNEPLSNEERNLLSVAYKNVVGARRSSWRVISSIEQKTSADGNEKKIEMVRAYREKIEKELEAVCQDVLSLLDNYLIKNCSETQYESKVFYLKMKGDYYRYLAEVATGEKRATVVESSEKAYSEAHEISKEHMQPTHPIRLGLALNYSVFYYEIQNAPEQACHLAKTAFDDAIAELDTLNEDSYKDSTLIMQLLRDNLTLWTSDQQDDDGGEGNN


How the values were obtained:
GST-14-3-3γ = biological target: T1, GST-14-3-3γ; assay: pull-down; GST-14-3-3 bound to glutathione-Sepharose beads, incubated with precleared NIH3T3 cell lysates 2 h at 4°C, washed three times with PBS, immunoblot for Raf-1, PI3K p110 and TSC2; only the target purified
FLAG-14-3-3γ [1] = biological target: T2, FLAG-14-3-3γ; assay: co-IP; anti-FLAG IP from NIH3T3 cells stably expressing FLAG-14-3-3γ or FLAG-14-3-3σ that were treated with LY294002; immunoblot for p110 and TSC2
FLAG-14-3-3γ [2] = biological target: T2, FLAG-14-3-3γ; assay: co-IP; 1 mg lysate of NIH3T3 cells stably expressing FLAG-14-3-3γ or FLAG-14-3-3σ, 5 µg anti-Flag antibody overnight at 4°C, protein A/G beads, washed with RIPA buffer, immunoblot; reciprocal IPs with anti-Raf-1, anti-p110 and anti-TSC2; also from cells treated with PD98059 (interaction with p110 not eliminated, with TSC2 reduced)
[3] = biological target: PI3K p110 catalytic subunit (mouse (endogenous in NIH3T3)); assay: as above

Row | binding (GST-14-3-3γ) | binding (FLAG-14-3-3γ [2]) | binding [3] | Molecule | binding (FLAG-14-3-3γ [1])
1 | binds | binds |  | PI3K p110 catalytic subunit (mouse (endogenous in NIH3T3)) (enzyme) | no binding (only cells treated with LY294002)
2 |  |  | binds | FLAG-14-3-3γ (protein, UniProt P61981 1-247) MVDREQLVQKARLAEQAERYDDMAAAMKNVTELNEPLSNEERNLLSVAYKNVVGARRSSWRVISSIEQKTSADGNEKKIEMVRAYREKIEKELEAVCQDVLSLLDNYLIKNCSETQYESKVFYLKMKGDYYRYLAEVATGEKRATVVESSEKAYSEAHEISKEHMQPTHPIRLGLALNYSVFYYEIQNAPEQACHLAKTAFDDAIAELDTLNEDSYKDSTLIMQLLRDNLTLWTSDQQDDDGGEGNN | 
